This is an account of results in doi:10.1101/2023.10.26.564194.

Sequences of proteins named here, by UniProt entry; tags and fusion partners are left off.
UniProt P04792: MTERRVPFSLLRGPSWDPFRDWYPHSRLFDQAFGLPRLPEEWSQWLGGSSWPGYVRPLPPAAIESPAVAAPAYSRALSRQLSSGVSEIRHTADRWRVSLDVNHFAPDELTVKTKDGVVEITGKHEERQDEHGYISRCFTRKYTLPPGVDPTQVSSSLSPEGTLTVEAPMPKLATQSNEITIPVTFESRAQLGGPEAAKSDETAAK

For test [1], the target named is T1, nuclear factor erythroid 2-related factor 2 (NRF2), endogenous (human (endogenous in MDA-MB-231, HCT116, MCF7)) (UniProt Q16236).
T1 sequence: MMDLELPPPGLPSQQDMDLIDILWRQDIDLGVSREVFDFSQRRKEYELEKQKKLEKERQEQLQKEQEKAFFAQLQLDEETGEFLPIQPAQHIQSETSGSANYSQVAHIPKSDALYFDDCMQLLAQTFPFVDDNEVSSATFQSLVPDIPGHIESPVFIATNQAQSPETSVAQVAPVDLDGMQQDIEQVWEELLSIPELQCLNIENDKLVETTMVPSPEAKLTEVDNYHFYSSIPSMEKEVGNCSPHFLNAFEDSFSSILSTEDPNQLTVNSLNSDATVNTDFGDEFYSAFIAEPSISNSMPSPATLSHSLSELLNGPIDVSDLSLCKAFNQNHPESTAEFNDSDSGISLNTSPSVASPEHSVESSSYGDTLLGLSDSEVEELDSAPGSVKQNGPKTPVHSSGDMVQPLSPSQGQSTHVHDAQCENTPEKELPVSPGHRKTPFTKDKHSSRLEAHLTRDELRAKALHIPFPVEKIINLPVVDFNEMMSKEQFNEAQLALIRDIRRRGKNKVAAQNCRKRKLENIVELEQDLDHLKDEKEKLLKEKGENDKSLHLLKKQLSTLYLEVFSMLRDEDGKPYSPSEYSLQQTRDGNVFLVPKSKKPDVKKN
The test can be described thus: co-IP.

In test [2] the target is T1, nuclear factor erythroid 2-related factor 2 (NRF2), endogenous (human (endogenous in MDA-MB-231, HCT116, MCF7)). The test can be described thus: proximity ligation.

These are yes or no findings as the source states them, for the method shown. Binding seen in cells or lysates may run through a third protein. Some binding calls cover weakened binding; strength is not graded here.

On to “HSP27, endogenous (from UniProt P04792 1-205)”, for which the binding entry in test [1] and in test [2] was “binds” in each case.
